# For part of these data: At least one compound was matched to its structure with a doubt left. Some entries share one result that the patent states for a list of compounds. Positions of bridges follow the written chain, without caps; N, C: chain ends. Residues, ends and D or L forms follow the SMILES beside them. *: point of attachment. 5FAM = O=C1OC2(c3ccc(O)cc3Oc3cc(O)ccc32)c2ccc(C(=O)*)cc21
# Chains of the proteins cited; added tags and fusions are not shown. Residues count along the entry.
# UniProt P01860, 1-377 isoform P01860-1: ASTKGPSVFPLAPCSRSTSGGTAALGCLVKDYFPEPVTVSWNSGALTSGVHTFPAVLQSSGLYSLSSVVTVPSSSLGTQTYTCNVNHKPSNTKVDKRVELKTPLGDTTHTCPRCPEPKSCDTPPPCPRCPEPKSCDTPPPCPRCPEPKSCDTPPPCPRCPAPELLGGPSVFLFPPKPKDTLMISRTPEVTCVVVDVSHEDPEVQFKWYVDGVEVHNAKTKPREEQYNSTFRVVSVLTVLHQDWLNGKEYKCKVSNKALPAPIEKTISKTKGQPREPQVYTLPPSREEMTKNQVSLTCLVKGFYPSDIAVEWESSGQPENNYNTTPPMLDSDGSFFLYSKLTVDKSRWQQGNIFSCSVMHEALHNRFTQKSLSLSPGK
# UniProt P01861, 1-327 isoform P01861-1: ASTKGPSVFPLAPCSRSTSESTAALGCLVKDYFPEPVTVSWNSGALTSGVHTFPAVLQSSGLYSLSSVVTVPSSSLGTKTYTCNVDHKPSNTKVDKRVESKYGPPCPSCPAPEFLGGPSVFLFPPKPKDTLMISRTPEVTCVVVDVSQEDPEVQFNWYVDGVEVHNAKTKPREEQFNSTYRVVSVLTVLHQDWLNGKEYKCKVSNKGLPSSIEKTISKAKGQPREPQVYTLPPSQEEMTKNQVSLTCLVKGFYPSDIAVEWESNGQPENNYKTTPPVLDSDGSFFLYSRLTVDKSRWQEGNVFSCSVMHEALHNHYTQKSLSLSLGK
# Experiments:
# human plasma IgG3 = target: T1, human plasma IgG3 (Homo sapiens, UniProt P01860); assay: Fluorescence anisotropy binding, fluorescein-labeled peptide; details: 2 nM labeled peptide; PBS with 0.01% Tween 20
# T1 construct: the individual human plasma IgG isoforms: IgG1, IgG2, IgG3, or IgG4; purchased Calbiochem; host or cells: human plasma
# Method: (§1) Peptides were synthesized by BACHEM Bioscience, Inc., (King of Prussia, Pa.), fluorescein labeled and purified by HPLC. Binding studies were performed using either a mixture of human plasma IgG isoforms (the Fc target) or the individual human plasma IgG isoforms: IgG1, IgG2, IgG3, or IgG4. All Fc target proteins were obtained from Calbiochem.
# (§2) All measurements were performed in 384 well microplates with 20 nM fluorescein-labeled peptide and various concentrations of the IgG isoform in a volume of between 10 and 20 μl using a Tecan Polarion fluorescence polarization plate reader. All binding buffers included 0.01% (v/v) Tween 20 to prevent peptide adsorption to the microplate. The binding mixture was equilibrated for 10 minutes in the microplate at 30° C. prior to performing the measurement.
# (§3) Peptides were synthesized, fluorescein-labeled and HPLC purified as described above. Binding studies were performed using either a mixture of human plasma IgG isoforms (the Fc protein) or the individual human plasma IgG isoforms: IgG1, IgG2, IgG3, or IgG4.
# (§4) Measurements were performed in 384-well microplates with 2 nM fluorescein-labeled peptide and a varied concentration of the IgG isoform target in a volume of 10 μl using a Tecan Polarion fluorescence polarization plate reader. The Fc binding buffer was 50 mM Tris-HCl, 200 mM NaCl, pH 8.0, 0.01% Tween 20. […]
# human plasma IgG4 = target: T2, human plasma IgG4 (Homo sapiens, UniProt P01861); assay: as above; details: 2 nM labeled peptide; PBS with 0.01% Tween 20
# T2 construct: the individual human plasma IgG isoforms: IgG1, IgG2, IgG3, or IgG4; purchased Calbiochem; host or cells: human plasma
# Method: as §1, §2, §3, §4
# hIgG1 = target: T3, hIgG1 (Homo sapiens, UniProt P01857); assay: Mini-chromatography column binding (dynamic conditions); details: 350 μl column, human IgG1 spiked into PBST, pH 7.2
# T3 construct: purchased Calbiochem 400120; host or cells: human myeloma patients
# Method: Thus, 250 μg of target (hIgG1, hIgG2, hIgG3, hIgG4, goat IgG and bovine IgG) at 0.250 mg/ml in PBST, pH 7.2 or TBST, pH 7.3 was loaded onto a 350 μl column (3×50 mm) run at 0.200 ml/min. flowrate (170 cm/hr). Flowthrough, elution and cleaning fractions were collected and assayed for total protein recovery by size-exclusion HPLC. Percentage mass balance was also determined to be 90-100% on average.
# For these experiments, 350 μl columns (3×50 mm) were packed with each media. The columns were tested with human Fc fragments or human IgG1 (Calbiochem, 401104 and 400120 respectively) spiked into PBST, pH 7.2 at a concentration of 0.5 g/l. 65 μg of Fc was loaded onto each column. After loading, the columns were washed with PBST, pH 7.2, eluted with 30 mM H3PO4, 150 mM NaCl, pH 2.0 and cleaned with 0.1M CAPS, pH 11.5 buffer (3-[Cyclohexylamino]-1-propane-sulfonic acid). Fractions collected were immediately neutralized to pH ˜7.2 with 2.0 M Tris, pH 8.0. All column operations were conducted at 200 μl/min (170 cm/hr).
compound,measurement,setting,value
CC(=O)N[C@@H](C)C(=O)NCC(=O)N[C@@H](CCCCN)C(=O)N[C@@H](Cc1ccc(O)cc1)C(=O)N[C@@H](Cc1c[nH]c2ccccc12)C(=O)N[C@H]1CSSC[C@@H](C(=O)N[C@@H](CCCCN)C(=O)N[C@H](C(=O)NCC(=O)N[C@H](C(=O)N2CCC[C@H]2C(=O)NCC(=O)N2CCC[C@H]2C(=O)N[C@@H](CCC(=O)O)C(=O)NCC(=O)NCC(=O)NCC(=O)N[C@@H](CCCCNC(=O)c2ccc3c(c2)C(=O)OC32c3ccc(O)cc3Oc3cc(O)ccc32)C(N)=O)[C@@H](C)O)[C@@H](C)O)NC(=O)[C@H](CCC(N)=O)NC(=O)[C@H](CC(C)C)NC(=O)CNC(=O)[C@H](Cc2c[nH]c3ccccc23)NC(=O)[C@H](Cc2ccccc2)NC(=O)[C@H](CO)NC1=O [DX300] (Ac-AGKYWCSFWGLQCKTGTPGPEGGGK(5FAM)-NH2; disulfide 6-13),Kd,human plasma IgG3,4.1 ± 4.6 µM
CC(=O)NCC(=O)N[C@@H](CC(=O)O)C(=O)N[C@@H](CCCNC(=N)N)C(=O)N[C@@H](CCCNC(=N)N)C(=O)N[C@@H](C)C(=O)N[C@H]1CSSC[C@@H](C(=O)N[C@@H](C)C(=O)NCC(=O)N[C@@H](Cc2c[nH]cn2)C(=O)N[C@@H](CCC(=O)O)C(=O)N2CCC[C@H]2C(=O)NCC(=O)N2CCC[C@H]2C(=O)N[C@@H](CCC(=O)O)C(=O)NCC(=O)NCC(=O)NCC(=O)N[C@@H](CCCCNC(=O)c2ccc3c(c2)C(=O)OC32c3ccc(O)cc3Oc3cc(O)ccc32)C(N)=O)NC(=O)[C@H](Cc2c[nH]c3ccccc23)NC(=O)[C@H](C(C)C)NC(=O)[C@H](CC(C)C)NC(=O)[C@H](C)NC(=O)CNC(=O)[C@H](CO)NC(=O)[C@H](Cc2c[nH]c3ccccc23)NC(=O)[C@H](CC(=O)O)NC(=O)[C@H](CCCNC(=N)N)NC(=O)[C@H](CO)NC1=O [DX301] (Ac-GDRRACSRDWSGALVWCAGHEPGPEGGGK(5FAM)-NH2; disulfide 6-17),Kd,human plasma IgG4,< 10 µM
"Ac-GDRRACSRDWSGALVWCAGHEPGPEGGGK-NH2 (N-acetyl, C-amide; Fc region binding polypeptide) [DX253]","Capture efficiency, IgG1",hIgG1,≥ 92%
